Data published in paper PMC6911044.
No constants are given. Whether binding was seen depends on the method and setting. Binding can be weak; no strength is given. Where a sequence is shown, tags or fusion partners need not be part of it. For part of these data: In cells and extracts the contact can be indirect. Values belong to the substance of their own block, whether it stands above or below them.

Tests used:
[1] = molecular target: T1, FLAG-tagged CP190, full-length, expressed in S2 cells (Drosophila) (UniProt Q24478); test: co-IP; co-immunoprecipitation between HIPP1 and FLAG-tagged proteins expressed in S2 cells
T1 sequence: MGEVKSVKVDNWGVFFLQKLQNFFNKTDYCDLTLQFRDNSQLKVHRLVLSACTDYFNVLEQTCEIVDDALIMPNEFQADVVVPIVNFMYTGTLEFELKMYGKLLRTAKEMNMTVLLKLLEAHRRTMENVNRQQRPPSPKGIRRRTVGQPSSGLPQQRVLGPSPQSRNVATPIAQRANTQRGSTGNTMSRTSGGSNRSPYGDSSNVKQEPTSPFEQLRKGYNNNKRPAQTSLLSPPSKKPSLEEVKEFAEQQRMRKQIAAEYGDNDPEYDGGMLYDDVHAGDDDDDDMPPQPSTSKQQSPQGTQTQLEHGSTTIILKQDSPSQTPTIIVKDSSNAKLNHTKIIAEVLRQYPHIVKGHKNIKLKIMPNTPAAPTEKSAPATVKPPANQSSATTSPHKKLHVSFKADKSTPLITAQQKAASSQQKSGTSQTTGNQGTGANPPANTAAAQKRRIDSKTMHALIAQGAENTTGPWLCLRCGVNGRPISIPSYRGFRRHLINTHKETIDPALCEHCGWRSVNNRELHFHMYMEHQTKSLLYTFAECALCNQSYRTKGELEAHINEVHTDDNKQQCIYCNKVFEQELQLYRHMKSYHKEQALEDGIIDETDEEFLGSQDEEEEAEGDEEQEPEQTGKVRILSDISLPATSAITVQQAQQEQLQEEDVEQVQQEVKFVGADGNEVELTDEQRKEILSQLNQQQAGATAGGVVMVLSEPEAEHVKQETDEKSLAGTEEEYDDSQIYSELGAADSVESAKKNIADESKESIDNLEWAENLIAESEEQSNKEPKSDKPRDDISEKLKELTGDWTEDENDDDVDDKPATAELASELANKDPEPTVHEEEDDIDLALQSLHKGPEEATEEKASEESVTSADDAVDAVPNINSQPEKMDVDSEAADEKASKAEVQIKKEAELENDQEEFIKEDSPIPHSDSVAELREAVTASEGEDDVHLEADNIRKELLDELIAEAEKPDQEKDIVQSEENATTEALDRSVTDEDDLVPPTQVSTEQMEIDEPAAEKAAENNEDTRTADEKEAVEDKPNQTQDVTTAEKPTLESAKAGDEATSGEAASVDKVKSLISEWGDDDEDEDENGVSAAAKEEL

[2] = molecular target: T2, FLAG-tagged Su(Hw), expressed in S2 cells (Drosophila) (UniProt P08970); test: as above
T2 sequence: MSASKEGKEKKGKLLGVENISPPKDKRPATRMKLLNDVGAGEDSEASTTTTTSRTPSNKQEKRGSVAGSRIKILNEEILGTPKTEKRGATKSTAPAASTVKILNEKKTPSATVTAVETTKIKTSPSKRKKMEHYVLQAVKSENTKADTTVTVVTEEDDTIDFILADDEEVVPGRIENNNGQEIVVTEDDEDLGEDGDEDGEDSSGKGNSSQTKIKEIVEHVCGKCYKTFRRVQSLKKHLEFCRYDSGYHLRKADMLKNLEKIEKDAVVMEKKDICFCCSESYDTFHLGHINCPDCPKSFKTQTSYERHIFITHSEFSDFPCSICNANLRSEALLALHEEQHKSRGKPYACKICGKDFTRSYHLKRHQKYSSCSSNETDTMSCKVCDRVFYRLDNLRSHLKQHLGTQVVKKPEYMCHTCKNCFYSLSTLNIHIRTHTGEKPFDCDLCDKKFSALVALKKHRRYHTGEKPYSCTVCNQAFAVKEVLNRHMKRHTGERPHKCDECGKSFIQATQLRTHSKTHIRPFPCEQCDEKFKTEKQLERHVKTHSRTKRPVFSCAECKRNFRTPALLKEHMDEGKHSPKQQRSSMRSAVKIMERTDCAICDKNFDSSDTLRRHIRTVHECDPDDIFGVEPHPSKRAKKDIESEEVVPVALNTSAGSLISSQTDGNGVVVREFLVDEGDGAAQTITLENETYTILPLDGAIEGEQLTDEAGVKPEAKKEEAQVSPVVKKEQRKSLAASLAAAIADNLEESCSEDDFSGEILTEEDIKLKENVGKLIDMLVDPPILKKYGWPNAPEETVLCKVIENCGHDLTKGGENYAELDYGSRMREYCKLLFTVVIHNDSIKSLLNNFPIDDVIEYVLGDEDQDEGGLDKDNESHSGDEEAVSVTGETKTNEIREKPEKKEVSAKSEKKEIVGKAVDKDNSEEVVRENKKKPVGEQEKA

[3] = molecular target: T3, CP190, two-hybrid fusion (Drosophila) (UniProt Q24478); test: two-hybrid; yeast two-hybrid with GAL4 fusions, in triplicate; performed as described previously (ref. 19)
T3 sequence: T1 sequence

[4] = molecular target: T4, Suppressor of Hairy-wing [Su(Hw)], two-hybrid fusion (Drosophila) (UniProt P08970); test: as above
T4 sequence: T2 sequence

[5] = molecular target: T5, Su(Hw), GST pull-down construct (Drosophila) (UniProt P08970); test: pull-down; GST pull-down, performed as described previously (ref. 19); which partner carried GST is not given
T5 sequence: T2 sequence

[6] = molecular target: T6, CP190, GST pull-down construct (Drosophila) (UniProt Q24478); test: as above
T6 sequence: T1 sequence

Substance: HIPP1 in S2 cells (co-IP) (Drosophila)
- binding [1]: binds
- binding [2]: binds

Substance: HIPP1 N-terminal domain, two-hybrid fusion (Drosophila) (domain or fragment)
- binding [3]: binds

Substance: HIPP1 N-terminal domain, GST pull-down construct (Drosophila) (domain or fragment)
- binding [6]: binds

Other lines, results leading:

- binding [4]: binds
Substance: HIPP1 crotonase domain, two-hybrid fusion (Drosophila) (domain or fragment)

- binding [5]: binds
Substance: HIPP1 crotonase domain, GST pull-down construct (Drosophila) (domain or fragment)
